Some of the results follow. Shown are side measurements of this screen, not its main read-out; they come without a call. Most of these compounds were active or inconclusive in the main read-out, so they are no random draw. Words in brackets tell the shape of the fitted curve; partial curves, single points and poor fits give uncertain potencies.

The assay can be described thus: qHTS Assay for Lipid Storage Modulators in Drosophila S3 Cells.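 For cell number change: cells counted by Cell Tracker Red CMTPX staining in the red channel.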 The following applies: BODIPY lipid droplet fluorescence, 18-24 h; for cell number change: measured here: cell count max response, cells fed with added oleic acid. An outline of the steps: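 Drosophila S3 cells loaded with oleic acid (400 uM, as added) and compounds at several concentrations; lipid droplets imaged by 488-nm laser-scanning cytometry, 500–530 nm intensity and object ratio to cell channel. Percent activity normalized to 20 uM Triacsin C.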
In general terms: qHTS replaces the single test concentration by a dilution series.

[1] abbreviates: measured here: cell number channel AC50, cells fed with added oleic acid.
Where [2] appears, read: measured here: lipid fluorescence (Fed channel) AC50, cells fed with added oleic acid.

What is called AC50 is the concentration giving half of the maximal activity seen. Consider `CCOC(=O)c1sc(NC(=O)CCCCCN2C(=O)c3cccc4cccc(c34)C2=O)nc1C`, for which the cell number change is -29.9%. Also, the AC50 under setting [1] is 0.461 µM [falling, full curve, poor fit].

`CCOC(=O)C1CCN(CC(O)COc2ccc(C(C)(C)C)cc2)CC1` (stereo not given): the cell number change is -26.9%. The AC50 under setting [2] is 32.6 µM [falling, single point]. In the case of `O=[N+]([O-])c1cccnc1N1CCN(Cc2ccc3c(c2)OCO3)CC1`, the AC50 under setting [2] was 29.1 µM [rising, partial curve, poor fit]. Regarding `S=C(c1ccc(N2CCCC2)c(Br)c1)N1CCCCC1`, the cell number change is 6.21%. Further, the AC50 under setting [2] was 6.51 µM [falling, single point]. As to `COc1ccc(C2=C(SC)CC2=NC(C)(C)C)cc1`, the cell number change is 3.6%. The AC50 under setting [1] is 2.31 µM [rising, single point]. Under setting [2], the AC50 was 6.51 µM [rising, single point]. Take `O=C(O)COCC(=O)Nc1ccc(OCCc2ccccc2)cc1`: the cell number change was -5.25%. Also, the AC50 under setting [2] was 29.1 µM [rising, single point].

As to `COc1ccc(Cl)cc1N1Cc2ccccc2C1`, the cell number change amounted to 61.5%. Also, the AC50 under setting [1] is 16.4 µM [rising, partial curve]. The AC50 under setting [2] was 18.4 µM [rising, partial curve]. Turning to `O=C(C1=C[C@@H](c2ccc3c(c2)OCO3)C[C@@H](OCc2ccc(CO)cc2)O1)N1CCOCC1`, the cell number change was determined as 9.78%. Moreover, the half-maximal activity concentration (AC50) under setting [2] is 2.06 µM [rising, partial curve]. `CS(=O)(=O)N1CCCC(C(=O)NCc2ccco2)C1` (stereo not given): the cell number change turned out to be 0.309%. For the same compound, the AC50 under setting [2] is 16.4 µM [falling, single point].

Take `Cc1ccc2nsnc2c1S(=O)(=O)N1CCN(CCc2ccccc2)CC1`: the cell number change was -1.62%.

Regarding `Cc1cc(C)n2nc(C(=O)OCC(=O)c3c[nH]c4ccccc34)nc2n1`, the cell number change was -0.198%. Consider `NC(=O)CN1C(=O)C(=O)N(Cc2ccc(F)cc2)C1=O`, for which the cell number change came to 45.8%. In addition, the AC50 under setting [1] is 13 µM [rising, partial curve, poor fit]. In addition, under setting [2], the AC50 was 8.2 µM [rising, partial curve]. For `Cc1onc(-c2c(Cl)cccc2Cl)c1C(=O)Nc1nccs1`, the cell number change stood at 20.2%. Consider `CCNC(=O)OCc1cn(-c2ccccc2)nn1`, for which the cell number change is 53.6%. Further, the AC50 under setting [2] is 3.66 µM [rising, full curve].

As for `CCOc1ccc(C2c3c(oc4cc(C)c(C)cc4c3=O)C(=O)N2CCCN2CCOCC2)cc1` (stereo not given), the cell number change was 10.1%. Moreover, the AC50 under setting [2] was 1.16 µM [rising, full curve, poor fit]. In the case of `C[C@@H](C(=O)Nc1ccc2c(c1)OCCO2)n1nnc2ccccc2c1=O`, the cell number change was -18.7%. Besides, the AC50 under setting [2] is 6.51 µM [rising, single point]. Turning to `Cc1cc(NC(=O)NCc2ccccc2)c(=O)n(Cc2ccc(F)cc2)c1`, the cell number change was found to be 10.8%.

`O=C(O)C(Cc1ccc(Cl)cc1)Sc1nc2ccccc2[nH]1` (stereo not given): the cell number change amounted to 47.7%. In addition, under setting [1], the AC50 was 18.4 µM [rising, partial curve, poor fit]. As to `O=C(CN1C(=O)NC2(CCc3ccccc32)C1=O)Nc1cc(C(F)(F)F)ccc1N1CCOCC1` (stereo not given), the cell number change was -14.4%. For `Cc1ccc(-c2n[nH]c3c2C(c2cccc(O)c2)N(c2ccc(C(=O)O)cc2)C3=O)cc1` (stereo not given), the cell number change stood at 26.2%. Also, the AC50 under setting [2] is 29.1 µM [rising, single point]. `COC(=O)c1cc(C(=O)OCC(=O)NC(=O)NCc2ccccc2)cc([N+](=O)[O-])c1`: the cell number change came to 15.2%. In addition, under setting [2], the AC50 was 4.11 µM [rising, single point].

With `Cc1ccccc1OCC(=O)NNC(=O)C1CCN(c2ncnc3sc(C)c(C)c23)CC1`, the cell number change worked out at 58.2%. Under setting [1], the AC50 was 20.6 µM [rising, partial curve]. Under setting [2], the AC50 is 29.1 µM [rising, single point]. Consider `O=S(=O)(NCc1cccnc1)c1cccn1-c1ncc(C(F)(F)F)cc1Cl`, for which the cell number change was -11%. Consider `CCCOC(=O)c1ccc(S(N)(=O)=O)o1`, for which the cell number change is -72.9%. Also, under setting [1], the AC50 is 29.1 µM [falling, single point]. The AC50 under setting [2] is 9.2 µM [falling, partial curve]. Regarding `Cc1onc(-c2ccccc2Cl)c1C(=O)Nc1nnc(C(C)C)s1`, the cell number change was -18%. The AC50 under setting [2] is 11.6 µM [falling, partial curve]. With `Cn1cc(CN2CCCC(C(=O)c3cccs3)C2)c(-c2cccc(Cl)c2)n1` (stereo not given), the cell number change is 2.91%. For the same compound, under setting [2], the AC50 is 0.651 µM [falling, partial curve, poor fit]. Take `O=C(COC(=O)c1ccc(Cl)nc1)NCCC1=CCCCC1`: the cell number change was found to be 19.4%. As for `O=C1CC(C(=O)N2CCN(c3ccccc3Cl)CC2)CN1Cc1ccccc1` (stereo not given), the cell number change was -15.1%. Further, the AC50 under setting [1] was 0.13 µM [falling, full curve, poor fit]. Besides, under setting [2], the AC50 was 0.103 µM [falling, full curve, poor fit].

With `CCn1c(SCC(=O)Nc2cccc(F)c2)nnc1-c1cc2cc(Br)ccc2o1`, the AC50 under setting [2] is 6.51 µM [rising, single point]. Take `Cc1ccc(-c2nc(NCC3CCCO3)sc2C)cc1` (stereo not given): the cell number change is 50.7%. Under setting [1], the AC50 was 29.1 µM [rising, single point]. Moreover, the AC50 under setting [2] was 0.146 µM [rising, full curve]. As for `O=C(Nc1cccn2ncnc12)C(Cl)Cl`, the cell number change was -16%. Also, the AC50 under setting [1] is 7.31 µM [falling, partial curve, poor fit]. On to `CC(CCc1ccccc1)NC(=O)CCC(=O)N1CCC(C(=O)O)CC1` (stereo not given), for which the cell number change came to 9.85%. Under setting [2], the AC50 is 29.1 µM [rising, single point]. Turning to `COC(=O)c1c(NC(=O)CN2C(=O)NC(CCc3ccccc3)C2=O)sc2c1CCCCC2` (stereo not given), the cell number change was 12.9%. For the same compound, the AC50 under setting [2] is 23.1 µM [rising, single point]. As for `CC(C)CC1NC(=O)N(Cc2cc(=O)n3ccsc3n2)C1=O` (stereo not given), the cell number change was 19.8%. Turning to `CC1CCN(CCC(=O)Nc2ccc(F)c(F)c2)CC1`, the cell number change is -1.65%. The AC50 under setting [2] was 0.58 µM [rising, single point]. For the compound `O=C(OCC1CCCN2CCCCC12)c1ccc2c(c1)OCO2` (stereo not given), the cell number change is -9.69%. Moreover, under setting [2], the AC50 is 0.326 µM [falling, partial curve]. With `COC(=O)C1=C(C)N(C)C(=S)NC1c1c(OC)ccc2ccccc12` (stereo not given), the cell number change was found to be 154%. For `COc1cccc(C(=O)c2cc3cc(Cl)ccc3[nH]2)c1`, the cell number change worked out at 3.63%. Further, under setting [2], the AC50 is 0.206 µM [rising, full curve, poor fit]. With `CCOP(=O)(OCC)C(Nc1ccc([N+](=O)[O-])cc1)c1ccc(Cl)cc1` (stereo not given), the cell number change amounted to 49.3%. Besides, the AC50 under setting [2] is 18.4 µM [rising, single point]. Turning to `COC(=O)c1c(NC(=O)CCCC(=O)O)sc(C)c1C`, the cell number change is 2.7%.
